Data published in US20240247301A1, “DIAGNOSTIC ASSAY FOR CLASSIC INBORN GALACTOSEMIA” (Ohio State Innovation Foundation, priority 2022, published 2024).
Where “and” joins values, the source holds several entries; their conditions need not be identical. Identical values can stand only once. The name of at least one read-out is uncertain.

What was measured:
[1] = Duarte GalT-YidA coupled assay (malachite green); assay type: biochemical; conditions: Duarte GalT coupled to SUMO-YidA, substrate Gal-1-P
Method: The assay contained 25 mM 4-(2-hydroxyethyl)-1-piperazineethanesulfonic acid (HEPES) (pH 8.0), 3 mM MgCl2, 2 mM DTT, 1 mM UDP-glucose (Sigma-Aldrich), 3 mM YidA, and varying amounts of His6-tagged Duarte GalT: 0.25 mM GalT for ≤0.1-mM Gal-1P, and 0.1 mM GalT for ≥0.1-mM Gal-1P (Table 3). […] These 2-μL aliquots were added to a 384-well plate which were pre-dispensed to test wells 18 μL of water and 5 μL of malachite green reagent. […] These specific time courses (using four time points; Table 3) and the appropriate dilutions were performed to maintain product formation in the linear range. To determine the Km and kcat values, the initial velocity calculated at each substrate concentration was subject to the Michaelis-Menten curve-fitting option in Kaleidagraph (Synergy Software).

[2] = Duarte GalT-PGM-G6PDH coupled assay (NADH fluorescence); assay type: biochemical; conditions: substrate Gal-1-P

B1: Duarte GalT: recombinant His6-tagged Duarte variant of galactose-1-phosphate uridylyl transferase, clone from Addgene (GALTA-c001) (protein, UniProt P07902 1-379, looked up, variant N314D)
Galactose-1-phosphate …: MSRSGTDPQQRQQASEADAAAATFRANDHQHIRYNPLQDEWVLVSAHRMKRPWQGQVEPQLLKTVPRHDPLNPLCPGAIRANGEVNPQYDSTFLFDNDFPALQPDAPSPGPSDHPLFQAKSARGVCKVMCFHPWSDVTLPLMSVPEIRAVVDAWASVTEELGAQYPWVQIFENKGAMMGCSNPHPHCQVWASSFLPDIAQREERSQQAYKSQHGEPLLMEYSRQELLRKERLVLTSEHWLVLVPFWATWPYQTLLLPRRHVRRLPELTPAERDDLASIMKKLLTKYDNLFETSFPYSMGWHGAPTGSEAGANWDHWQLHAHYYPPLLRSATVRKFMVGYEMLAQAQRDLTPEQAAERLRALPEVHYHLGQKDRETATIA
[1]
  kcat/Km: 16600 ± 1400 M⁻¹ s⁻¹
[2]
  kcat/Km: 8170 M⁻¹ s⁻¹ and 8080 M⁻¹ s⁻¹ and 8970 M⁻¹ s⁻¹ and 7670 M⁻¹ s⁻¹ and 8230 ± 667 M⁻¹ s⁻¹
